Measurements: patent US20140328858, “LIN28-MEDIATED CONTROL OF LET-7 BIOGENESIS” (Children's Medical Center Corporation, published 2014)
For part of these data: For at least one entry, the source does not settle the construct or the ends of the probe.

Chains of the proteins cited; added tags and fusions are not shown. Lines headed by an entry give the natural chain unless they say otherwise; changes in a name come on top. A line that says so, or that is headed by a name, gives the form on record, which may keep a tag or linker.
UniProt B2RX14: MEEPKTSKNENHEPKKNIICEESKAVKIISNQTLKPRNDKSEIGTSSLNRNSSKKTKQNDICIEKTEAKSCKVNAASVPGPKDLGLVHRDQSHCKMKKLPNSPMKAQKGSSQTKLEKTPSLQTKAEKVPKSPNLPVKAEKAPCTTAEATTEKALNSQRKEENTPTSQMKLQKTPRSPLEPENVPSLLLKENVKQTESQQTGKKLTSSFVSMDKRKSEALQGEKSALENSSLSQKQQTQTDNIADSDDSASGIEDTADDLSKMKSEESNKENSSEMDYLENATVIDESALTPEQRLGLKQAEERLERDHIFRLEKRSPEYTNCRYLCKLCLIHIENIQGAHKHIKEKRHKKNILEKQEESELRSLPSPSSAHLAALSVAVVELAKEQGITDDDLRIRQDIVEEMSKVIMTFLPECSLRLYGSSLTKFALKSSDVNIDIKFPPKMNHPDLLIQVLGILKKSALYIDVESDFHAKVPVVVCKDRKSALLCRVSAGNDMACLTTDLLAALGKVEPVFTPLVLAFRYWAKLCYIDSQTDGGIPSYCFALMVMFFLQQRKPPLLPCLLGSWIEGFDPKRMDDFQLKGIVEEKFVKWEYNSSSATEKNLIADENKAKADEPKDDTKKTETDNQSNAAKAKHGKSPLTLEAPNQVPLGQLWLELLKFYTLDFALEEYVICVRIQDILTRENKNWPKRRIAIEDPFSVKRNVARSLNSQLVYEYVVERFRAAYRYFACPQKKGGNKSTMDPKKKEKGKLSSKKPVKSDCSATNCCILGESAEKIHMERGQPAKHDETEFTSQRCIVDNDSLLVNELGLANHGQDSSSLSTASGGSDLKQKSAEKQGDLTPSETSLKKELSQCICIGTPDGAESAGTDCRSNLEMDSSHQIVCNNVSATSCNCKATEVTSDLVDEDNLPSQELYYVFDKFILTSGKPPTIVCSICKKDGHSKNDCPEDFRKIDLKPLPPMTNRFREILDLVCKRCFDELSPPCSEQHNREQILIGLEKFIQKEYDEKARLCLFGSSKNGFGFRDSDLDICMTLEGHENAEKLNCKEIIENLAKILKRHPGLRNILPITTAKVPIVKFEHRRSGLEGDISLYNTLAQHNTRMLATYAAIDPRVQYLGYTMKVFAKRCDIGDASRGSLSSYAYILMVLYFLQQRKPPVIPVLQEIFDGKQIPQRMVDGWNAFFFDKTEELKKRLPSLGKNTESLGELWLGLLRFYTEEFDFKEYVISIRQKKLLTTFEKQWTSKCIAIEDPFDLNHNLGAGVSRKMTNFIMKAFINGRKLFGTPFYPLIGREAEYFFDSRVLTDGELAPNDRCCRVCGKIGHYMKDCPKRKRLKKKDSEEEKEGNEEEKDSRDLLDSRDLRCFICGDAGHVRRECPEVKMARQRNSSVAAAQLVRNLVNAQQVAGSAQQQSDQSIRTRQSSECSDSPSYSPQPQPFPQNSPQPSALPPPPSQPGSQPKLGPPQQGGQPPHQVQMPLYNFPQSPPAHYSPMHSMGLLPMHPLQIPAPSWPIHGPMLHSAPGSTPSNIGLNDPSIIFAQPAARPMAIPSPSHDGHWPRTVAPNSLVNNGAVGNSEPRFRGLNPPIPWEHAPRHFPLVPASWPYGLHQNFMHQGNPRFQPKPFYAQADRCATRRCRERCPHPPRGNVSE
Lin28A + Zcchc11 C2H2 domain (Homo sapiens / Mus musculus), one chain, as listed by the source, chain 1 of 2: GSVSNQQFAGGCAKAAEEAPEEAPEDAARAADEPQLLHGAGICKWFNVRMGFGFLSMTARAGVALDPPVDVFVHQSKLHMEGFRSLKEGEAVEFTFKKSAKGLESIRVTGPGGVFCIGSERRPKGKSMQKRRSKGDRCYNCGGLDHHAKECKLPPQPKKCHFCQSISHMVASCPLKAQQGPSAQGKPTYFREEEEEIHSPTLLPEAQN
Lin28A + Zcchc11 C2H2 domain (Homo sapiens / Mus musculus), one chain, as listed by the source, chain 2 of 2: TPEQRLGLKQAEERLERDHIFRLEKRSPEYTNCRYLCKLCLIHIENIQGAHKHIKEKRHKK

How the values were obtained:
[1] = biological target: Zcchc11 (Mus musculus) (UniProt B2RX14); experiment: activity assay; details: Zcchc11-catalyzed uridylation of mature miRNA, no Lin28 stated; Zcchc11 species not stated in legend; protein in a lysate after overexpression; protein details: Flag, immunopurified from HEK293T
[2] = test system: Lin28A + Zcchc11 C2H2 domain (Homo sapiens / Mus musculus); experiment: EMSA; details: Lin28 and Zcchc11 C2H2 domain bind pre-let-7 synergistically; 0.5 nM RNA; purified recombinant protein; protein details: His-tagged each; label: 5'-end label (EMSA)
[3] = test system: Zcchc11 deltaPneumoG/C (Mus musculus); experiment: activity assay; details: uridylation with Lin28 (IP or recombinant); Lin28 and Zcchc11 sufficient; purified recombinant protein; protein details: Flag and His, E. coli (pETDUET-1); label: 5'-end label (EMSA)

UGAGGUAGUAGUUUGUGCUGUU [mature let-7 miRNA (SEQ 12)]
activity on this sequence [1]: active

GAGGUAGUAGUUUGUACAGUUUGAGGGUCUAUGAUACCACCCGGUACAGGAGAUAACUGUACAGGCCACUGCCUUGC [pre-let-7g]
binding result [2]: binds
activity on this sequence [3]: active
